Data as given in PubChem BioAssay AID686938 (Drosophila RNAi Screening Center, 2013).
Aim: 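Knock-downs reducing store-operated calcium influx in Drosophila cells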 (primary screen). System: Drosophila S2R+ cells. Reagent: long dsRNA against Drosophila genes, about 0.25 µg dsRNA per well, roughly 10,000 cells. Duration: 5 days of knock-down before the calcium assay. Conditions: thapsigargin (SERCA pump blocker) to empty calcium stores; entry signal taken 4 min after adding it. Detection: 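Duplicate raw fluo-4 intensities per well from a plate reader, at rest and four minutes after thapsigargin emptied calcium stores; entry-to-rest ratio filled for only some wells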. Scale: calcium entry signal: higher = stronger calcium signal after store depletion; resting calcium signal: higher = higher resting calcium signal. Call rule: 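Hit if the duplicate-averaged plate z-score for entry over resting signal is under −3; wells with weak total dye signal (Fmax z < −2) or more than 5 off-targets removed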. Meaning of the calls: active = strongly reduced calcium entry; inactive = no strong reduction.
In all, the deposit lists about 23,000 reagents; below is a random part of those with a known target gene and a result. Of all reagents, 75 (0.33%) were called active. 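Raw plate signals without normalisation; calls rest on plate z-scores that were not deposited; ratio present for only 364 wells.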 Unmarked entries are inactive. Names joined by + are all predicted targets of the reagent. Not given: the dose of the treatment.

target | PubChem SID | calcium entry signal, replicate 1 (fluorescence units) | calcium entry signal, replicate 2 (fluorescence units) | resting calcium signal, replicate 1 (fluorescence units) | resting calcium signal, replicate 2 (fluorescence units)
CheB38b (Chemosensory protein B 38b) | SID104202233 | 4.89e7 | 3.38e7 | 2.36e7 | 1.50e7
wtrw (water witch) | SID104194033 | 2.41e7 | 2.40e7 | 1.04e7 | 1.25e7
wtrw (water witch) | SID104195070 | 4.48e7 | 5.90e7 | 2.09e7 | 2.55e7
Cdk4 (Cyclin-dependent kinase 4) | SID104187150 | 3.92e7 | 3.54e7 | 1.85e7 | 1.89e7
CG7379 | SID104196029 | 4.44e7 | 4.35e7 | 2.15e7 | 1.99e7
fid (fire dancer) | SID104194677 | 4.01e7 | 6.19e7 | 2.13e7 | 2.51e7
fid (fire dancer) | SID104196256 | 4.26e7 | 5.38e7 | 2.28e7 | 2.25e7
chas (chascon) | SID104199300 | 2.48e7 | 3.16e7 | 1.38e7 | 1.36e7
chas (chascon) | SID104199301 | 2.69e7 | 2.94e7 | 1.42e7 | 1.32e7
Mgat4b | SID104190048 | 4.01e7 | 6.18e7 | 2.08e7 | 2.36e7
CG15572 | SID104197852 | 2.95e7 | 3.54e7 | 1.37e7 | 1.65e7
Pfdn2 (Prefoldin 2) | SID104190410 | 2.73e7 | 3.89e7 | 1.36e7 | 1.61e7
Pka-R2 (Protein kinase, cAMP-dependent, regulatory subunit type 2) | SID104187301 | 2.59e7 | 2.57e7 | 1.22e7 | 1.08e7
CG14442 | SID104197727 | 3.67e7 | 4.46e7 | 1.89e7 | 1.99e7
La (La autoantigen-like) | SID104183150 | 3.21e7 | 2.95e7 | 1.62e7 | 1.29e7
eyg (eyegone) | SID104191136 | 2.14e7 | 3.00e7 | 1.35e7 | 1.60e7
eyg (eyegone) | SID104202493 | 4.97e7 | 3.02e7 | 2.52e7 | 1.37e7
CG9003 | SID104187109 | 3.28e7 | 3.58e7 | 1.89e7 | 1.86e7
S6KL (S6 Kinase Like) | SID104199141 | 5.46e7 | 3.24e7 | 2.51e7 | 1.64e7
S6KL (S6 Kinase Like) | SID104201288 | 4.34e7 | 3.35e7 | 2.37e7 | 1.64e7
S6KL (S6 Kinase Like) | SID104202504 | 3.29e7 | 4.25e7 | 1.50e7 | 1.86e7
Ppn (Papilin) | SID104195120 | 3.35e7 | 4.58e7 | 1.67e7 | 2.05e7

Part of the list above, reduced to “resting calcium signal, replicate 1 (fluorescence units)”.
wtrw (water witch) [SID104194033] = 1.04e7
wtrw (water witch) [SID104195070] = 2.09e7
Cdk4 (Cyclin-dependent kinase 4) [SID104187150] = 1.85e7
CG7379 [SID104196029] = 2.15e7
fid (fire dancer) [SID104194677] = 2.13e7
fid (fire dancer) [SID104196256] = 2.28e7
chas (chascon) [SID104199300] = 1.38e7
chas (chascon) [SID104199301] = 1.42e7

More results follow.
target | PubChem SID | calcium entry signal, replicate 1 (fluorescence units) | calcium entry signal, replicate 2 (fluorescence units) | resting calcium signal, replicate 1 (fluorescence units) | resting calcium signal, replicate 2 (fluorescence units)
Agps (Alkylglycerone phosphate synthase) | SID104185776 | 3.76e7 | 4.27e7 | 2.02e7 | 2.02e7
CR33315 (pseudo) | SID104202304 | 2.97e7 | 4.01e7 | 1.49e7 | 1.80e7
Obp46a (Odorant-binding protein 46a) | SID104186012 | 5.15e7 | 4.85e7 | 2.28e7 | 2.18e7
Ctr1B + Poxm | SID104196037 | 3.47e7 | 2.53e7 | 1.59e7 | 1.32e7
fs(1)M3 (female sterile (1) M3) | SID104198173 | 3.38e7 | 3.52e7 | 1.59e7 | 1.69e7
hrg (hiiragi) | SID104187294 | 5.19e7 (active) | 5.46e7 | 3.43e7 | 3.51e7
CG13992 | SID104182116 | 3.60e7 | 3.99e7 | 1.74e7 | 1.79e7
Teh4 (tipE homolog 4) | SID104188249 | 4.49e7 | 4.45e7 | 2.23e7 | 1.97e7
CG10550 | SID104194043 | 3.02e7 | 3.09e7 | 1.34e7 | 1.48e7
CG31668 | SID104202006 | 3.79e7 | 3.69e7 | 1.97e7 | 1.56e7
UGP + PGRP-LF | SID104190210 | 1.59e7 | 1.95e7 | 8.94e6 | 9.57e6
Topors (Topoisomerase I-interacting protein) | SID104186323 | 2.42e7 | 1.88e7 | 1.13e7 | 1.00e7
eIF3c (eukaryotic translation initiation factor 3 subunit c) | SID104186697 | 2.01e7 | 1.42e7 | 1.29e7 | 8.97e6
etaTry (etaTrypsin) | SID104187405 | 3.00e7 | 4.46e7 | 1.56e7 | 1.76e7
vanin-like | SID104197232 | 2.98e7 | 3.48e7 | 1.49e7 | 1.67e7
csul (capsuleen) | SID104187391 | 4.75e7 | 4.17e7 | 2.03e7 | 2.02e7
CG1544 | SID104194828 | 3.24e7 | 4.09e7 | 1.41e7 | 1.90e7
lsn (larsen) | SID104195873 | 3.91e7 | 3.57e7 | 6.06e7 | 1.79e7
Etf-QO (Electron transfer flavoprotein-ubiquinone oxidoreductase) | SID104185903 | 3.16e7 | 3.07e7 | 1.51e7 | 1.45e7
CG14380 | SID104194632 | 2.62e7 | 5.37e7 | 1.34e7 | 7.77e7
CG42813 | SID104195731 | 3.90e7 | 4.65e7 | 1.83e7 | 2.03e7
Ice2 (Interacts with the C terminus of ELL 2) | SID104194060 | 4.57e7 | 3.93e7 | 1.92e7 | 1.55e7
Sdc (Syndecan) | SID104184446 | 4.43e7 | 5.85e7 | 2.18e7 | 2.31e7
sni (sniffer) | SID104197562 | 2.14e7 | 2.56e7 | 1.16e7 | 1.26e7
CG43759 | SID104199256 | 3.94e7 | 3.97e7 | 1.79e7 | 1.66e7
CG43759 | SID104199335 | 5.49e7 | 5.02e7 | 3.09e7 | 2.48e7
NimC2 (Nimrod C2) | SID104181673 | 5.22e7 | 3.38e7 | 2.22e7 | 1.58e7
sphinx1 | SID104190785 | 2.82e7 | 3.36e7 | 1.35e7 | 1.48e7
CG9813 | SID104196361 | 3.13e7 | 3.85e7 | 1.43e7 | 1.73e7
mh (maternal haploid) | SID104199960 | 3.02e7 | 2.74e7 | 1.70e7 | 1.38e7
PGRP-LC (Peptidoglycan recognition protein LC) | SID104188772 | 6.12e7 | 4.04e7 | 3.12e7 | 1.84e7
PGRP-LC (Peptidoglycan recognition protein LC) | SID104190208 | 1.53e7 | 1.99e7 | 8.24e6 | 9.85e6
PGRP-LC (Peptidoglycan recognition protein LC) | SID104190209 | 1.59e7 | 1.97e7 | 8.77e6 | 9.88e6
CG8745 | SID104190825 | 2.65e7 | 3.70e7 | 1.18e7 | 2.50e7
CG8745 | SID104190826 | 3.52e7 | 3.69e7 | 1.87e7 | 1.68e7
CG8745 | SID104202113 | 4.36e7 | 3.33e7 | 2.41e7 | 1.71e7
